In patent US20160367623A1, “AGONISTS OF GUANYLATE CYCLASE USEFUL FOR THE TREATMENT OF GASTROINTESTINAL DISORDERS, INFLAMMATION, CANCER AND OTHER DISORDERS” (priority 2015, published 2016):
Further values from the same series stand in other lists.

Columns and labels:
Format in all cases: in vivo, human
[1] = test system: patients with chronic idiopathic constipation (CIC); test: Second phase 3 CIC trial: change from baseline in stool consistency (BSFS); conditions: All Randomized (includes Duplicate Patients)
[2] = test system: patients with chronic idiopathic constipation (CIC); test: Second phase 3 CIC trial: CSBM weekly responders by week; conditions: All Randomized (includes Duplicate Patients), MRA
From the text: Both trials include a two-week pre-treatment baseline period, a 12-week treatment period, and a two-week post-treatment period. The phase 3 CIC program was designed to support regulatory submission in the U. S.
The primary endpoint for both trials is the proportion of durable overall responders (%), which is the current regulatory endpoint required for U.S. approval in CIC. The FDA has defined a durable overall responder as a patient who fulfills both ≧3 complete spontaneous bowel movements (CSBMs) per week plus an increase of ≧1 CSBM from baseline in the same week, for 9 out of the 12 treatment weeks. In addition, the same patient must be an overall responder for at least 3 of the last 4 treatment weeks in order to be considered a durable overall responder.
Patients were selected using Rome 3 criteria modified for CIC and had (1) fewer than 3 defecations per week, (2) loose stools occurring rarely without laxatives, (3) inadequate criteria for irritable bowel syndrome with constipation (IBS-C), and (4) at least two of the following applied to at least 25% of defecations: (a) straining during evacuation, (b) lumpy or hard stools, (c) sensation of anorectal obstruction or blockage. Rome 3 requires patients to fulfill the criteria for the last 3 months with symptom onset at least 6 months prior to diagnosis.

[3] = test system: patients with chronic idiopathic constipation (CIC); test: Second phase 3 CIC trial: change from baseline in CSBMs/week; conditions: All Randomized (includes Duplicate Patients)

## Asn^1-Asp^2-Glu^3-Cys^4-Glu^5-Leu^6-Cys^7-Val^8-Asn^9-Val^10-Ala^11-Cys^12-Thr^13-Gly^14-Cys^15-Leu^16 (NDECELCVNVACTGCL; disulfides C4-C12, C7-C15) [Plecanatide, uroguanylin analogue, guanylate cyclase-C agonist; (C4:C12, C7:C15) bicycle peptide]
[1]; 3 mg, Week 5
  Change from Baseline in Stool Consistency, Mean (SD): 1.69 (1.456)
[1]; 3 mg, Week 6
  Change from Baseline in Stool Consistency, Mean (SD): 1.68 (1.530)
[1]; 3 mg, Week 7
  Change from Baseline in Stool Consistency, Mean (SD): 1.59 (1.435)
[1]; 3 mg, Week 8
  Change from Baseline in Stool Consistency, Mean (SD): 1.71 (1.489)
[1]; 3 mg, Week 9
  Change from Baseline in Stool Consistency, Mean (SD): 1.67 (1.455)
[1]; 3 mg, Week 10
  Change from Baseline in Stool Consistency, Mean (SD): 1.64 (1.524)
[1]; 3 mg, Week 11
  Change from Baseline in Stool Consistency, Mean (SD): 1.57 (1.579)
[1]; 3 mg, Week 12
  Change from Baseline in Stool Consistency, Mean (SD): 1.69 (1.468)
[1]; 6 mg, Week 4
  Change from Baseline in Stool Consistency, Mean (SD): 1.42 (1.596)
[1]; 6 mg, Week 5
  Change from Baseline in Stool Consistency, Mean (SD): 1.56 (1.598)
[1]; 6 mg, Week 6
  Change from Baseline in Stool Consistency, Mean (SD): 1.54 (1.525)
[1]; 6 mg, Week 7
  Change from Baseline in Stool Consistency, Mean (SD): 1.54 (1.543)
[1]; 6 mg, Week 8
  Change from Baseline in Stool Consistency, Mean (SD): 1.51 (1.538)
[1]; 6 mg, Week 9
  Change from Baseline in Stool Consistency, Mean (SD): 1.60 (1.511)
[1]; 6 mg, Week 10
  Change from Baseline in Stool Consistency, Mean (SD): 1.58 (1.439)
[1]; 6 mg, Week 11
  Change from Baseline in Stool Consistency, Mean (SD): 1.57 (1.499)
[1]; 6 mg, Week 12
  Change from Baseline in Stool Consistency, Mean (SD): 1.55 (1.488)
[1]; Active Combined, Week 4
  Change from Baseline in Stool Consistency, Mean (SD): 1.49 (1.553)
[1]; Active Combined, Week 5
  Change from Baseline in Stool Consistency, Mean (SD): 1.63 (1.528)
[1]; Active Combined, Week 6
  Change from Baseline in Stool Consistency, Mean (SD): 1.61 (1.528)
[1]; Active Combined, Week 7
  Change from Baseline in Stool Consistency, Mean (SD): 1.56 (1.489)
[1]; Active Combined, Week 8
  Change from Baseline in Stool Consistency, Mean (SD): 1.61 (1.516)
[1]; Active Combined, Week 9
  Change from Baseline in Stool Consistency, Mean (SD): 1.63 (1.483)
[1]; Active Combined, Week 10
  Change from Baseline in Stool Consistency, Mean (SD): 1.61 (1.481)
[1]; Active Combined, Week 11
  Change from Baseline in Stool Consistency, Mean (SD): 1.57 (1.538)
[1]; Active Combined, Week 12
  Change from Baseline in Stool Consistency, Mean (SD): 1.62 (1.478)
[2]; Post-Treatment Week 14, 6 mg
  Non-Responders, n (%): 386 (82.0) n (%)
[2]; Post-Treatment Week 14, Active Combined
  Non-Responders, n (%): 761 (80.9) n (%)
[2]; Week 1, 3 mg
  CSBM Weekly Responders, n (%): 128 (27.2) n (%)
[2]; Week 1, 6 mg
  CSBM Weekly Responders, n (%): 120 (25.5) n (%)
[2]; Week 1, Active Combined
  CSBM Weekly Responders, n (%): 248 (26.4) n (%)
[2]; Week 2, 3 mg
  Non-Responders, n (%): 350 (74.5) n (%)
[2]; Week 2, 6 mg
  Non-Responders, n (%): 339 (72.0) n (%)
[2]; Week 2, Active Combined
  Non-Responders, n (%): 689 (73.2) n (%)
[2]; Week 3, 3 mg
  Non-Responders, n (%): 335 (71.3) n (%)
[2]; Week 3, 6 mg
  CSBM Weekly Responders, n (%): 129 (27.4) n (%)
  Non-Responders, n (%): 342 (72.6) n (%)
[2]; Week 3, Active Combined
  CSBM Weekly Responders, n (%): 264 (28.1) n (%)
  Non-Responders, n (%): 677 (71.9) n (%)
[2]; Week 4, 3 mg
  CSBM Weekly Responders, n (%): 142 (30.2) n (%)
  Non-Responders, n (%): 328 (69.8) n (%)
[2]; Week 4, 6 mg
  CSBM Weekly Responders, n (%): 137 (29.1) n (%)
  Non-Responders, n (%): 334 (70.9) n (%)
[2]; Week 4, Active Combined
  CSBM Weekly Responders, n (%): 279 (29.6) n (%)
  Non-Responders, n (%): 662 (70.4) n (%)
[2]; Week 5, 3 mg
  CSBM Weekly Responders, n (%): 165 (35.1) n (%)
  Non-Responders, n (%): 305 (64.9) n (%)
[2]; Week 5, 6 mg
  CSBM Weekly Responders, n (%): 138 (29.3) n (%)
  Non-Responders, n (%): 333 (70.7) n (%)
[2]; Week 5, Active Combined
  CSBM Weekly Responders, n (%): 303 (32.2) n (%)
  Non-Responders, n (%): 638 (67.8) n (%)
[2]; Week 6, 3 mg
  CSBM Weekly Responders, n (%): 145 (30.9) n (%)
  Non-Responders, n (%): 325 (69.1) n (%)
[2]; Week 6, 6 mg
  CSBM Weekly Responders, n (%): 150 (31.8) n (%)
  Non-Responders, n (%): 321 (68.2) n (%)
[2]; Week 6, Active Combined
  CSBM Weekly Responders, n (%): 295 (31.3) n (%)
  Non-Responders, n (%): 646 (68.7) n (%)
[2]; Week 7, 3 mg
  CSBM Weekly Responders, n (%): 152 (32.3) n (%)
  Non-Responders, n (%): 318 (67.7) n (%)
[2]; Week 7, 6 mg
  CSBM Weekly Responders, n (%): 145 (30.8) n (%)
  Non-Responders, n (%): 326 (69.2) n (%)
[2]; Week 7, Active Combined
  CSBM Weekly Responders, n (%): 297 (31.6) n (%)
  Non-Responders, n (%): 644 (68.4) n (%)
[2]; Week 8, 3 mg
  CSBM Weekly Responders, n (%): 151 (32.1) n (%)
  Non-Responders, n (%): 319 (67.9) n (%)
[2]; Week 8, 6 mg
  CSBM Weekly Responders, n (%): 147 (31.2) n (%)
  Non-Responders, n (%): 324 (68.8) n (%)
[2]; Week 8, Active Combined
  CSBM Weekly Responders, n (%): 298 (31.7) n (%)
  Non-Responders, n (%): 643 (68.3) n (%)
[2]; Week 9, 3 mg
  CSBM Weekly Responders, n (%): 151 (32.1) n (%)
  Non-Responders, n (%): 319 (67.9) n (%)
[2]; Week 9, 6 mg
  CSBM Weekly Responders, n (%): 146 (31.0) n (%)
  Non-Responders, n (%): 325 (69.0) n (%)
[2]; Week 9, Active Combined
  CSBM Weekly Responders, n (%): 297 (31.6) n (%)
  Non-Responders, n (%): 644 (68.4) n (%)
[2]; Week 10, 3 mg
  CSBM Weekly Responders, n (%): 142 (30.2) n (%)
[2]; Week 10, 6 mg
  CSBM Weekly Responders, n (%): 156 (33.1) n (%)
[2]; Week 10, Active Combined
  CSBM Weekly Responders, n (%): 298 (31.7) n (%)
[3]; 3 mg, Week 5
  Change from Baseline in CSBMs, Mean (SD): 2.40 (3.334) CSBMs/week
[3]; 3 mg, Week 6
  Change from Baseline in CSBMs, Mean (SD): 2.42 (3.524) CSBMs/week
[3]; 3 mg, Week 7
  Change from Baseline in CSBMs, Mean (SD): 2.41 (3.388) CSBMs/week
[3]; 3 mg, Week 8
  Change from Baseline in CSBMs, Mean (SD): 2.64 (3.709) CSBMs/week
[3]; 3 mg, Week 9
  Change from Baseline in CSBMs, Mean (SD): 2.55 (3.428) CSBMs/week
[3]; 3 mg, Week 10
  Change from Baseline in CSBMs, Mean (SD): 2.59 (3.582) CSBMs/week
[3]; 3 mg, Week 11
  Change from Baseline in CSBMs, Mean (SD): 2.67 (3.667) CSBMs/week
[3]; 3 mg, Week 12
  Change from Baseline in CSBMs, Mean (SD): 2.74 (3.758) CSBMs/week
[3]; 6 mg, Week 4
  Change from Baseline in CSBMs, Mean (SD): 2.05 (3.223) CSBMs/week
[3]; 6 mg, Week 5
  Change from Baseline in CSBMs, Mean (SD): 1.97 (3.003) CSBMs/week
[3]; 6 mg, Week 6
  Change from Baseline in CSBMs, Mean (SD): 2.26 (3.359) CSBMs/week
[3]; 6 mg, Week 7
  Change from Baseline in CSBMs, Mean (SD): 2.33 (3.330) CSBMs/week
[3]; 6 mg, Week 8
  Change from Baseline in CSBMs, Mean (SD): 2.32 (3.221) CSBMs/week
[3]; 6 mg, Week 9
  Change from Baseline in CSBMs, Mean (SD): 2.35 (3.152) CSBMs/week
[3]; 6 mg, Week 10
  Change from Baseline in CSBMs, Mean (SD): 2.47 (3.274) CSBMs/week
[3]; 6 mg, Week 11
  Change from Baseline in CSBMs, Mean (SD): 2.43 (3.259) CSBMs/week
[3]; 6 mg, Week 12
  Change from Baseline in CSBMs, Mean (SD): 2.54 (3.382) CSBMs/week
[3]; Active Combined, Week 4
  Change from Baseline in CSBMs, Mean (SD): 2.13 (3.287) CSBMs/week
[3]; Active Combined, Week 5
  Change from Baseline in CSBMs, Mean (SD): 2.18 (3.176) CSBMs/week
[3]; Active Combined, Week 6
  Change from Baseline in CSBMs, Mean (SD): 2.34 (3.440) CSBMs/week
[3]; Active Combined, Week 7
  Change from Baseline in CSBMs, Mean (SD): 2.37 (3.357) CSBMs/week
[3]; Active Combined, Week 8
  Change from Baseline in CSBMs, Mean (SD): 2.48 (3.469) CSBMs/week
[3]; Active Combined, Week 9
  Change from Baseline in CSBMs, Mean (SD): 2.45 (3.288) CSBMs/week
[3]; Active Combined, Week 10
  Change from Baseline in CSBMs, Mean (SD): 2.52 (3.425) CSBMs/week
[3]; Active Combined, Week 11
  Change from Baseline in CSBMs, Mean (SD): 2.55 (3.463) CSBMs/week
[3]; Active Combined, Week 12
  Change from Baseline in CSBMs, Mean (SD): 2.64 (3.570) CSBMs/week
